These results are taken from article PMC7309601, “Efficacy of THN201, a Combination of Donepezil and Mefloquine, to Reverse Neurocognitive Deficits in Alzheimer’s Disease” (Frontiers in Neuroscience, 2020).

Molecules are shown by their SMILES.

Data set [1] relates to Aβ25–35 peptide-injected mice. The data set can be described thus: Novel object recognition (NOR) task in Aβ25–35-injected mice. To be noted: DPZ 0.25 mg/kg p.o. daily from day 1; Aβ25–35 i.c.v. It is filed as in vivo. The protocol: Both novel object recognition (NOR) and novel object location (NOL) tests were carried out in an open-field arena during three phases ([Leger et al., 2013]; [Vogel-Ciernia and Wood, 2014]; [Lueptow, 2017]). (i) For the habituation phase on the first day, mice were allowed to freely explore the empty apparatus. (ii) On the second day, two identical objects were placed at two opposite edges of the arena. Time spent by the mouse exploring the two objects was recorded. (iii) Twenty-four hours later, one of the two familiar objects was replaced by a novel one (NOR) or displaced (NOL). Mice were allowed to explore the whole arena during 10 min for each of the three phases. The preference index was calculated as the ratio of the duration of contacts with the novel/displaced object over the total duration of contacts with the two objects. Locomotion was recorded using EthoVision software (Noldus, Paris, France).

The nature of data set [2]: Pharmacokinetics of DPZ and MEF in serum and brain. To be noted: rat, in vivo. Here is the method: Drugs were administered p.o., once per day for 14 days.
Blood was collected on the 14th treatment day, just prior to drug administration (T0) and then 30 min, 1, 2, 4, 8, and 24 h later. Blood was collected by retro-orbital puncture except for the last collection, which was made by intracardiac puncture. After coagulation, blood samples were centrifuged at 3,000 × g for 15 min, and serum was collected and stored at −80°C. Rats were sacrificed by decapitation immediately after the last blood collection, and their brains including brainstem and cerebellum were removed as one piece, placed on tinfoil precooled on dry ice and stored at −80°C until drug quantifications.
One volume of brain or serum samples was added to three volumes of human serum EDTA K3, and the mixture was homogenized under magnetic stirring for 15 min for analysis using a Sciex API4000 Qtrap mass spectrometer coupled to a Shimadzu HPLC system (Shimadzu Corporation, Marne-la-Vallée, France).
(A,C) Blood samples were collected before treatment (T0) and then at 0.5, 1, 2, 4, 8, and 24 h after the last administration on day 14. (B,D) Brain samples were collected on day 15, 24 h after the last drug administration. […] No statistical analysis applicable (C,D). Bars in black indicate combination treatments.

Turning to `COc1cc2c(cc1OC)C(=O)C(CC1CCN(Cc3ccccc3)CC1)C2` (stereo not drawn) [DPZ, Donepezil], the “NOR test phase: effect on Aβ-induced impairment (preference index)” value in data set [1] is given as “did not reverse the Aβ-induced impairment”. In addition, the values for the concentration at 24 h in data set [2] (0.25 mg/kg) and in data set [2] (1 mg/kg) were 13 ± 2.17 ng/g and 78.1 ± 11.5 ng/g, respectively.
